# According to the supplement of paper PMC8728848:
# This is one part of the list.
# B1: MFG-E8 (Mus musculus), P21956 (protein)
# chain: MQVSRVLAALCGMLLCASGLFAASGDFCDSSLCLNGGTCLTGQDNDIYCLCPEGFTGLVCNETERGPCSPNPCYNDAKCLVTLDTQRGDIFTEYICQCPVGYSGIHCETETNYYNLDGEYMFTTAVPNTAVPTPAPTPDLSNNLASRCSTQLGMEGGAIADSQISASSVYMGFMGLQRWGPELARLYRTGIVNAWTASNYDSKPWIQVNLLRKMRVSGVMTQGASRAGRAEYLKTFKVAYSLDGRKFEFIQDESGGDKEFLGNLDNNSLKVNMFNPTLEAQYIKLYPVSCHRGCTLRFELLGCELHGCSEPLGLKNNTIPDSQMSASSSYKTWNLRAFGWYPHLGRLDNQGKINAWTAQSNSAKEWLQVDLGTQRQVTGIITQGARDFGHIQYVASYKVAHSDDGVQWTVYEEQGSSKVFQGNLDNNSHKKNIFEKPFMARYVRVLPVSWHNRITLRLELLGC
# Columns and labels:
# Assay in all cases: glycan array binding signal (z-score within array); higher = stronger binding
# Conditions in all cases: glycan notation: IUPAC condensed, linker removed
# Gal(b1-3)GalNAc(b1-3)Gal = molecular target: Gal(b1-3)GalNAc(b1-3)Gal
# In short: (§1)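 The binding signal is a Z-score computed within each array. Data were drawn from 3228 arrays in the Consortium for Functional Glycomics database, restricted to those with a known protein sequence. Scores were averaged over arrays of the same protein sequence at different concentrations or buffers, and over linkers, and negative values can be taken as non-binding.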
# [1] = molecular target: Gal(b1-3)GalNAc(b1-3)Gal(a1-4)Gal(b1-4)Glc
# In short: as §1
# [2] = molecular target: Gal(b1-3)GalNAc(b1-4)Gal(b1-4)Glc
# In short: as §1
# [3] = molecular target: Gal(b1-3)GalNAc(b1-4)[Neu5Ac(a2-3)]Gal(b1-4)Glc
# In short: as §1
# Gal(b1-3)GlcNAc = molecular target: Gal(b1-3)GlcNAc
# In short: as §1
# [4] = molecular target: Gal(b1-3)GlcNAc(a1-3)Gal(b1-4)GlcNAc
# In short: as §1
# [5] = molecular target: Gal(b1-3)GlcNAc(a1-6)Gal(b1-4)GlcNAc
# In short: as §1
# Gal(b1-3)GlcNAc(b1-2)Man = molecular target: Gal(b1-3)GlcNAc(b1-2)Man
# In short: as §1
# [6] = molecular target: Gal(b1-3)GlcNAc(b1-2)Man(a1-3)[Gal(b1-3)GlcNAc(b1-2)Man(a1-6)]Man(b1-4)GlcNAc(b1-4)GlcNAc
# In short: as §1
# [7] = molecular target: Gal(b1-3)GlcNAc(b1-2)Man(a1-3)[Gal(b1-3)GlcNAc(b1-2)Man(a1-6)]Man(b1-4)GlcNAc(b1-4)[Fuc(a1-6)]GlcNAc
# In short: as §1
# [8] = molecular target: Gal(b1-3)GlcNAc(b1-2)Man(a1-3)[GlcNAc(b1-4)][Gal(b1-3)GlcNAc(b1-2)Man(a1-6)]Man(b1-4)GlcNAc(b1-4)GlcNAc
# In short: as §1
# [9] = molecular target: Gal(b1-3)GlcNAc(b1-2)[Gal(b1-3)GlcNAc(b1-6)]Man(a1-6)[Gal(b1-3)GlcNAc(b1-2)Man(a1-3)]Man(b1-4)GlcNAc(b1-4)GlcNAc
# In short: as §1
# [10] = molecular target: Gal(b1-3)GlcNAc(b1-3)Gal(b1-3)GlcNAc
# In short: as §1
# [11] = molecular target: Gal(b1-3)GlcNAc(b1-3)Gal(b1-4)Glc
# In short: as §1
# [12] = molecular target: Gal(b1-3)GlcNAc(b1-3)Gal(b1-4)GlcNAc
# In short: as §1
# [13] = molecular target: Gal(b1-3)GlcNAc(b1-3)Gal(b1-4)GlcNAc(b1-2)Man(a1-3)[Gal(b1-3)GlcNAc(b1-3)Gal(b1-4)GlcNAc(b1-2)Man(a1-6)]Man(b1-4)GlcNAc(b1-4)GlcNAc
# In short: as §1
# [14] = molecular target: Gal(b1-3)GlcNAc(b1-3)Gal(b1-4)GlcNAc(b1-2)[Gal(b1-3)GlcNAc(b1-3)Gal(b1-4)GlcNAc(b1-6)]Man(a1-6)[Gal(b1-3)GlcNAc(b1-3)Gal(b1-4)GlcNAc(b1-2)Man(a1-3)]Man(b1-4)GlcNAc(b1-4)[Fuc(a1-6)]GlcNAc
# In short: as §1
# [15] = molecular target: Gal(b1-3)GlcNAc(b1-3)Gal(b1-4)GlcNAc(b1-3)Gal(b1-4)GlcNAc(b1-2)[Gal(b1-3)GlcNAc(b1-3)Gal(b1-4)GlcNAc(b1-3)Gal(b1-4)GlcNAc(b1-6)]Man(a1-6)[Gal(b1-3)GlcNAc(b1-3)Gal(b1-4)GlcNAc(b1-3)Gal(b1-4)GlcNAc(b1-2)Man(a1-3)]Man(b1-4)GlcNAc(b1-4)[Fuc(a1-6)]GlcNAc
# In short: as §1
# [16] = molecular target: Gal(b1-3)GlcNAc(b1-3)Gal(b1-4)GlcNAc(b1-6)[Gal(b1-3)GlcNAc(b1-3)]Gal(b1-4)Glc
# In short: as §1
# [17] = molecular target: Gal(b1-3)GlcNAc(b1-3)Gal(b1-4)[Fuc(a1-3)]GlcNAc
# In short: as §1
# [18] = molecular target: Gal(b1-3)GlcNAc(b1-3)Gal(b1-4)[Fuc(a1-3)]GlcNAc(b1-6)[Gal(b1-3)GlcNAc(b1-3)]Gal(b1-4)Glc
# In short: as §1
# [19] = molecular target: Gal(b1-3)GlcNAc(b1-3)GalNAc
# In short: as §1
# [20] = molecular target: Gal(b1-3)GlcNAc(b1-6)Gal(b1-4)GlcNAc
# In short: as §1
# [21] = molecular target: Gal(b1-3)GlcNAc(b1-6)GalNAc
# In short: as §1
# [22] = molecular target: Gal(b1-3)GlcNAc(b1-6)[Gal(b1-3)]GalNAc
# In short: as §1
# Gal(b1-3)GlcNAc6S = molecular target: Gal(b1-3)GlcNAc6S
# In short: as §1
# [23] = molecular target: Gal(b1-3)[Fuc(a1-4)]GlcNAc
# In short: as §1
# [24] = molecular target: Gal(b1-3)[Fuc(a1-4)]GlcNAc(b1-2)Man
# In short: as §1
# [25] = molecular target: Gal(b1-3)[Fuc(a1-4)]GlcNAc(b1-2)Man(a1-3)[Gal(b1-3)[Fuc(a1-4)]GlcNAc(b1-2)Man(a1-6)]Man(b1-4)GlcNAc(b1-4)GlcNAc
# In short: as §1
# [26] = molecular target: Gal(b1-3)[Fuc(a1-4)]GlcNAc(b1-2)Man(a1-3)[Gal(b1-3)[Fuc(a1-4)]GlcNAc(b1-2)Man(a1-6)]Man(b1-4)GlcNAc(b1-4)[Fuc(a1-6)]GlcNAc
# In short: as §1
# [27] = molecular target: Gal(b1-3)[Fuc(a1-4)]GlcNAc(b1-3)Gal(b1-3)[Fuc(a1-4)]GlcNAc
# In short: as §1
# [28] = molecular target: Gal(b1-3)[Fuc(a1-4)]GlcNAc(b1-3)Gal(b1-4)GlcNAc
# In short: as §1
# [29] = molecular target: Gal(b1-3)[Fuc(a1-4)]GlcNAc(b1-3)Gal(b1-4)[Fuc(a1-3)]GlcNAc
# In short: as §1
# [30] = molecular target: Gal(b1-3)[Fuc(a1-4)]GlcNAc(b1-6)GalNAc
# In short: as §1
# [31] = molecular target: Gal(b1-3)[GlcNAc(b1-6)]GalNAc
# In short: as §1
# [32] = molecular target: Gal(b1-3)[Neu5Ac(a2-6)]GalNAc
# In short: as §1
# [33] = molecular target: Gal(b1-3)[Neu5Ac(a2-6)]GlcNAc(b1-4)Gal(b1-4)Glc
# In short: as §1
binder,measurement,setting,value
B1,glycan array binding signal (z-score),Gal(b1-3)GalNAc(b1-3)Gal,0.416
same,glycan array binding signal (z-score),[1],-0.443
same,glycan array binding signal (z-score),[2],-0.553
same,glycan array binding signal (z-score),[3],-0.423
same,glycan array binding signal (z-score),Gal(b1-3)GlcNAc,-0.518
same,glycan array binding signal (z-score),[4],-0.599
same,glycan array binding signal (z-score),[5],-0.106
same,glycan array binding signal (z-score),Gal(b1-3)GlcNAc(b1-2)Man,-0.138
same,glycan array binding signal (z-score),[6],-0.048
same,glycan array binding signal (z-score),[7],-0.351
same,glycan array binding signal (z-score),[8],0.77
same,glycan array binding signal (z-score),[9],-0.004
same,glycan array binding signal (z-score),[10],0.102
same,glycan array binding signal (z-score),[11],-0.86
same,glycan array binding signal (z-score),[12],-0.535
same,glycan array binding signal (z-score),[13],-0.424
same,glycan array binding signal (z-score),[14],-0.699
same,glycan array binding signal (z-score),[15],0.221
same,glycan array binding signal (z-score),[16],-0.966
same,glycan array binding signal (z-score),[17],1.5
same,glycan array binding signal (z-score),[18],-0.11
same,glycan array binding signal (z-score),[19],-0.036
same,glycan array binding signal (z-score),[20],0.294
same,glycan array binding signal (z-score),[21],-0.538
same,glycan array binding signal (z-score),[22],0.931
same,glycan array binding signal (z-score),Gal(b1-3)GlcNAc6S,0.712
same,glycan array binding signal (z-score),[23],0.682
same,glycan array binding signal (z-score),[24],-0.412
same,glycan array binding signal (z-score),[25],0.151
same,glycan array binding signal (z-score),[26],0.056
same,glycan array binding signal (z-score),[27],0.302
same,glycan array binding signal (z-score),[28],-0.022
same,glycan array binding signal (z-score),[29],0.048
same,glycan array binding signal (z-score),[30],-0.161
same,glycan array binding signal (z-score),[31],0.343
same,glycan array binding signal (z-score),[32],-0.539
same,glycan array binding signal (z-score),[33],0.041

# Quoted at random: 2 entries already listed.
binder,measurement,setting,value
B1,glycan array binding signal (z-score),[2],-0.553
same,glycan array binding signal (z-score),[32],-0.539
